Reference: publication PMC4147587, “Synthesis and Analgesic Effects of μ-TRTX-Hhn1b on Models of Inflammatory and Neuropathic Pain” (Toxins, 2014)

Test system: acetic acid-induced abdominal constriction responses in mice
Parameters: species or system mouse (ICR)
Conditions: mouse, in vivo, ip
Method: The abdominal constriction responses induced by intraperitoneal (i.p.) injection of 0.2 mL acetic acid (0.8%), including contraction of the abdominal muscle and stretching of the hind limbs, were performed according to procedures described by Collier et al.. Mice (male, weighing 20–25 g) were pre-treated with the test samples dissolved in saline by intraperitoneal (i.p.) injection for 15 min prior to acetic acid injection. Control animals received the same volume of vehicle (saline: 0.9% sodium chloride solution). After the challenge, mice were individually placed into open polyvinyl cages (30 cm × 40 cm × 30 cm), and the abdominal constriction responses were counted cumulatively during 30 min, which was represented as the sum of constriction (S). The inhibition of pain responses was calculated by the equation as follows: inhibition of pain responses % = (Ssaline − Sdrug)/Ssaline per animal. One hundred percent corresponds to complete reversal of pain, equivalent to the non-injury value, and 0% corresponds to the value from the saline group.

CN1CC[C@]23c4c5ccc(O)c4O[C@H]2[C@@H](O)C=C[C@H]3[C@H]1C5 [morphine, reference compound]
inhibition of pain responses (abdominal constriction): 58.3%
